The record followed here is the supplement of paper PMC12823440, “Inhibitors supercharge kinase turnover through native proteolytic circuits” (Nature, 2025).

Chains of the proteins cited; added tags and fusions are not shown. Lines headed by an entry give the natural chain unless they say otherwise; changes in a name come on top.
UniProt P49840: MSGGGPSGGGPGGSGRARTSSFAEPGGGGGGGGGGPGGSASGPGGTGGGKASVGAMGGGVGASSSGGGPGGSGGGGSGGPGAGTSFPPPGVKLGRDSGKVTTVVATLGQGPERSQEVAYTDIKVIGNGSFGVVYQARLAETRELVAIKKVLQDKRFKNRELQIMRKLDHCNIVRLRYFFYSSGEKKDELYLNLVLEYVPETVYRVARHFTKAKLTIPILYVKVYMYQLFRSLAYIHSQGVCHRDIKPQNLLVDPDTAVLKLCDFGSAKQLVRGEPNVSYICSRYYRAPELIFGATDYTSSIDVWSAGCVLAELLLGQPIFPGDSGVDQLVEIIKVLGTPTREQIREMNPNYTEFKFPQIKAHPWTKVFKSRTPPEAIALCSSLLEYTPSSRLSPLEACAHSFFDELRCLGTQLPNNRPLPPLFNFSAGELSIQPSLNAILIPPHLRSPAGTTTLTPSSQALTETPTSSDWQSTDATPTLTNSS

Where a name gives a salt, the structure may show the parent alone. Some of the results follow. The calls rarely recur for the same compound in another form.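 Kinases, fused to nanoluciferase, were expressed in K562 cells; luminescence was measured every 4 h from 2 to 18 h as percent of control (DMSO = 100%, positive control = 0%). A time point is decreased if signal falls significantly (2 sigma). Hits were called by the authors by a rule that is not shown; the count of time points alone does not decide it.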

The target of the assay is GSK3A (UniProt P49840). The assay can be described thus: number of time points (of 5) at which kinase-Nluc abundance scored as decreased, DMSO-normalised (count); higher = more persistent destabilization. As to conditions: K562; 2-18 h.
In the case of `CN1CCN(c2cc(-c3ccncc3)c(-c3ccc4ccccc4c3)nn2)CC1` (10 µM), the “number of time points” value was determined as 0.
On to `CC(O)(C#Cc1ccc2c(c1)N(c1nc(N)ncc1Cl)CC2)c1nccs1` (stereo not drawn) (2.5 µM), for which the “number of time points” value worked out at 0.
Turning to `COc1ccc(Nc2ncc(C(F)(F)F)c(NC3CC3)n2)cc1OC` (10 µM), the “number of time points” value is 0.
With `O=c1cc(N2CCOCC2)oc2c(-c3ccc4c(c3)OCCO4)csc12` (2.5 µM), the “number of time points” value was 0.
Under `N[C@@H]1CCCN(c2c(/C=C3\SC(=O)NC3=O)cccc2-c2ccccc2)C1` (10 µM) stands 0; under `N#Cc1ccc(-c2cnc3[nH]cc(NC(=O)c4cccnc4)c3c2)cc1` (10 µM), 0.
With `COc1ccc(Br)cc1NC(=O)Nc1cccc2c1ccn2Cc1ccnc(N)c1` (2.5 µM), the “number of time points” value was 0.
Under `COc1cc(N2CCOCC2)ccc1Nc1ncc(F)c(Nc2ccccc2NS(C)(=O)=O)n1` (10 µM) stands 0; under `COc1ccc(-c2cc(=O)c3c(OC)cc(OC)c(OC)c3o2)cc1` [6-Demethoxytangeretin] (10 µM), 0.
Under `COc1cc2c(cc1O)C[C@H]1c3cc(O)c(OC)cc3CC[N@@+]1(C)C2` [Phellodendrine] (10 µM) stands 0; under `CO[C@H]1C[C@@H]2CC[C@@H](C)[C@@](O)(O2)C(=O)C(=O)N2CCCC[C@H]2C(=O)O[C@H]([C@H](C)C[C@@H]2CC[C@@H](OC(=O)C(C)(CO)CO)[C@H](OC)C2)CC(=O)[C@H](C)/C=C(\C)[C@@H](O)[C@@H](OC)C(=O)[C@H](C)C[C@H](C)/C=C/C=C/C=C/1C` [Temsirolimus] (2.5 µM), 0.
Under `O=C(ON=C1c2ccccc2-c2nc3ccccc3nc21)c1ccco1` (2.5 µM) stands 0; under `COc1ccc(S(=O)(=O)Nc2cc(-c3c(O)ccc4ccccc34)c(O)c3ccccc23)cc1` (10 µM), 0.
On to `Cc1cccc(COc2cccc(/C=C3\C(=O)NN(c4ccccc4)C3=O)c2)c1` (10 µM), for which the “number of time points” value was found to be 0.
The figure for `CC(C)Oc1ccc(F)c(-c2cnc(N)c(C(=O)Nc3cnccc3N3CCC[C@@H](C(=O)O)C3)n2)c1` (2 µM) is 0; for `COc1cc(F)ccc1-c1ncnc(Nc2cccc(C[S@](C)(=N)=O)c2)n1` [Atuveciclib] (2.5 µM) it is 2; for `CC(C)n1ncnc1-c1cn2c(n1)-c1ccc(O[C@@H](C)C(N)=O)cc1OCC2` (10 µM) it is 0.
Under `Cn1c(CNc2cccc(C(=O)NCc3ccccc3C(F)(F)F)c2)nnc1-c1ccncc1` (10 µM) stands 0; under `O=Nc1c(-c2c(O)[nH]c3cc(Br)ccc23)[nH]c2ccccc12` [GSK 3 Inhibitor IX] (2.5 µM), 0.
The figure for `Nc1ncc(C(=O)NC2CN(C(=O)C3CC3)C2)c2ccc(-c3cccc(F)c3)nc12` (2 µM) is 0.
For `O=C(Nc1cc(Cl)cc2c1[nH]c1cnccc12)c1cccnc1` (10 µM), the “number of time points” value was determined as 0.
As to `c1ccc(Cn2c(-c3ccc(OC[C@H](C4CCNCC4)n4c(-c5ccccc5)nc5ccccc54)cc3)nc3ccccc32)cc1` [Deltarasin] (2.5 µM), the “number of time points” value was 0.
The figure for `COc1cc2ncnc(Nc3cccc(I)c3)c2cc1OC` (2.5 µM) is 0; for `Clc1ccc(C(c2ccc(Cl)cc2)[n+]2ccn(CC(OCc3ccc(Cl)cc3Cl)c3ccc(Cl)cc3Cl)c2)cc1` (stereo not drawn) [Calmidazolium chloride] (2.5 µM) it is 0; for `O=C(Nc1cccnc1)c1cc(-c2ccnc(F)c2)ccc1OCc1ccccc1` (10 µM) it is 0.
Under `c1nn(C2CCOCC2)cc1Nc1ncc2nnn(-c3ccc4cn[nH]c4c3)c2n1` (10 µM) stands 0; under `COC(=O)[C@H](CCSC)NC(=O)c1ccc(NC[C@@H](N)CS)cc1-c1ccccc1` [FTI-277 (hydrochloride)] (10 µM), 0; under `Cc1cc(Nc2cc(N)ncn2)c(=O)n2c1C(=O)NC21CCCCC1` [Tomivosertib] (10 µM), 0.
`CCc1c[nH]c2ncnc(N3CC[C@](N)(CNC(=O)c4ccc(F)cc4F)C3)c12` (10 µM): the “number of time points” value is 0.
`Nc1ncnc2c1nc(Br)n2[C@@H]1O[C@@H]2COP(=O)(O)O[C@H]2[C@H]1O` [8-Bromo-cAMP sodium salt] (10 µM): the “number of time points” value came to 0.
The figure for `CC(C)n1c(=O)n(C)c2cnc3cc(F)c(-c4ccc(OCCCN5CCCCC5)nc4)cc3c21` (10 µM) is 0; for `Cc1ccc(C)c(OCCn2cc(C(=O)O)c3ccccc32)c1` (10 µM) it is 0; for `COCCOc1ccc2c(c1)ncn2-c1ccc2cccc(N3CCC(N)CC3)c2n1` (10 µM) it is 0.
Under `CC(C)=CCC/C(C)=C/CC/C(C)=C/C=C/C(C)=C/C(=O)O` [Peretinoin] (10 µM) stands 0; under `C=CC(=O)N1CC[C@@H](Oc2nc(Nc3ccc(N4CCC(N5CCN(C)CC5)CC4)cc3)c(C(N)=O)nc2CC)C1` [Naquotinib (mesylate)] (2.5 µM), 0; under `CC(Sc1nc2c(cnn2-c2cccc(Cl)c2)c(=O)[nH]1)C(N)=O` (stereo not drawn) (10 µM), 0.
The figure for `Cc1cc(O)c2c(c1)C(=O)c1cccc(O)c1C2=O` [Chrysophanol] (2 µM) is 0; for `O=C1OC(/C=C/c2ccccc2)=NC/1=C\c1cccnc1` (10 µM) it is 0.
